Holding throughout (conditions): yeast three-hybrid, YBZ-1, SC-Leu-His + 0.5 mM 3-AT, 4 days
Test [1] concerns the target T1, PUM1 PUF domain R5-GVE C1007G + R1008V + Q1011E (UniProt Q14671).
T1 sequence: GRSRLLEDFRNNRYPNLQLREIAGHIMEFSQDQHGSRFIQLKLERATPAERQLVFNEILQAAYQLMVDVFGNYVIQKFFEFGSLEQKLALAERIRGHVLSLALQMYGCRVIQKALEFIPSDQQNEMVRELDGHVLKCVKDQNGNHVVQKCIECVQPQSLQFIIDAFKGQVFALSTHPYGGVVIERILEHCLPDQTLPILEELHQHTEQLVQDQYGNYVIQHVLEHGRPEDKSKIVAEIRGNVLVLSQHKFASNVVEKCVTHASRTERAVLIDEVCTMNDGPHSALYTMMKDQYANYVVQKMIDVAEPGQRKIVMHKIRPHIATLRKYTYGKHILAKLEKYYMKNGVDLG

Test [2] addresses T2, PUM1 PUF domain R5-GYV C1007G + R1008Y + Q1011V (UniProt Q14671).
T2 sequence: T1 sequence with V181Y, E184V

The target in test [3] is T3, PUM1 PUF domain R5-HLY C1007H + R1008L + Q1011Y (UniProt Q14671).
T3 sequence: T1 sequence with G180H, V181L, E184Y

In test [4] the target is T4, PUM1 PUF domain R5-IRP C1007I + Q1011P (UniProt Q14671).
T4 sequence: T1 sequence with G180I, V181R, E184P

For test [5], the target named is T5, PUM1 PUF domain R5-ISR C1007I + R1008S + Q1011R (Homo sapiens) (UniProt Q14671).
T5 sequence: T1 sequence with G180I, V181S, E184R

In test [6] the target is T6, PUM1 PUF domain R5-KLC C1007K + R1008L + Q1011C (Homo sapiens) (UniProt Q14671).
T6 sequence: T1 sequence with G180K, V181L, E184C

In test [7] the target is T7, PUM1 PUF domain R5-KLH C1007K + R1008L + Q1011H (Homo sapiens) (UniProt Q14671).
T7 sequence: T1 sequence with G180K, V181L, E184H

Test [8] has as its target T8, PUM1 PUF domain R5-KMV C1007K + R1008M + Q1011V (Homo sapiens) (UniProt Q14671).
T8 sequence: T1 sequence with G180K, V181M, E184V

For test [9], the target named is T9, PUM1 PUF domain R5-KQD C1007K + R1008Q + Q1011D (Homo sapiens) (UniProt Q14671).
T9 sequence: T1 sequence with G180K, V181Q, E184D

For test [10], the target named is T10, PUM1 PUF domain R5-KTV C1007K + R1008T + Q1011V (Homo sapiens) (UniProt Q14671).
T10 sequence: T1 sequence with G180K, V181T, E184V

Test [11] concerns the target T11, PUM1 PUF domain R5-KVE C1007K + R1008V + Q1011E (Homo sapiens) (UniProt Q14671).
T11 sequence: T1 sequence with G180K

The target in test [12] is T12, PUM1 PUF domain R5-KWG C1007K + R1008W + Q1011G (Homo sapiens) (UniProt Q14671).
T12 sequence: T1 sequence with G180K, V181W, E184G

Test [13] deals with T13, PUM1 PUF domain R5-LFQ C1007L + R1008F (Homo sapiens) (UniProt Q14671).
T13 sequence: T1 sequence with G180L, V181F, E184Q

The target of test [14] is T14, PUM1 PUF domain R5-LSR C1007L + R1008S + Q1011R (Homo sapiens) (UniProt Q14671).
T14 sequence: T1 sequence with G180L, V181S, E184R

For test [15], the target named is T15, PUM1 PUF domain R5-LWR C1007L + R1008W + Q1011R (Homo sapiens) (UniProt Q14671).
T15 sequence: T1 sequence with G180L, V181W, E184R

Test [16] concerns the target T16, PUM1 PUF domain R5-LYL C1007L + R1008Y + Q1011L (Homo sapiens) (UniProt Q14671).
T16 sequence: T1 sequence with G180L, V181Y, E184L

Test [17] deals with T17, PUM1 PUF domain R5-LYM C1007L + R1008Y + Q1011M (Homo sapiens) (UniProt Q14671).
T17 sequence: T1 sequence with G180L, V181Y, E184M

Test [18] concerns the target T18, PUM1 PUF domain R5-MGR C1007M + R1008G + Q1011R (Homo sapiens) (UniProt Q14671).
T18 sequence: T1 sequence with G180M, V181G, E184R

The target of test [19] is T19, PUM1 PUF domain R5-MSR C1007M + R1008S + Q1011R (Homo sapiens) (UniProt Q14671).
T19 sequence: T1 sequence with G180M, V181S, E184R

In test [20] the target is T20, PUM1 PUF domain R5-PHQ R6-SWD C1007P + R1008H + N1043S + Y1044W + Q1047D (UniProt Q14671).
T20 sequence: T1 sequence with G180P, V181H, E184Q, N216S, Y217W, Q220D

The target in test [21] is T21, PUM1 PUF domain R5-PRC C1007P + Q1011C (UniProt Q14671).
T21 sequence: T1 sequence with G180P, V181R, E184C

Test [22] has as its target T22, PUM1 PUF domain R5-QCL C1007Q + R1008C + Q1011L (Homo sapiens) (UniProt Q14671).
T22 sequence: T1 sequence with G180Q, V181C, E184L

The target in test [23] is T23, PUM1 PUF domain R5-QLV C1007Q + R1008L + Q1011V (UniProt Q14671).
T23 sequence: T1 sequence with G180Q, V181L, E184V

Consider one sequence from PMC8384837.

Positions count from the first letter of the chain named. Some of the results follow. For some assays here: At the low end of the ranking, values are background and their order means little. For some assays here: Construct or isoform of the protein are uncertain.

In the case of “GGCUAGAACUAGUGGAUCCCCCGGCGCCCGGCGGCUCGAGCCCGGGUAAGUGUUAAUAGUCUGCAUGCCGCCGGGCGCCAUGCCUGCAGGUCGACUCUAGAAAACAUG”, the binding signal (log2 enrichment (interaction score)) in [1] was less than -7.14; in test [2], -6.6; in [3] it was less than -9.84; in test [4] it was -2.5; in test [5], -1.12; in [6] it was 0.05. Also, the binding signal (log2 enrichment (interaction score)) in test [7] is -1.79; in test [8], -0.07; in test [9], -0.05; in [10] it was 0.3; in [11], -1.1; in test [12] it was -0.59. Also, the binding signal (log2 enrichment (interaction score)) in [13] was -0.09; in test [14] it was -1.73; in [15], -0.91; in [16] it was 0.11; in test [17], 0.4; in test [18], -0.18. The binding signal (log2 enrichment (interaction score)) in test [19] is -0.29; in [20] it was -8.45; in [21], -5.56; in [22] it was -0.62; in [23], -2.86.
